# According to patent US20230218777A1:
# The chains behind the UniProt entries cited, without tags or fusion partners. Residues count along the entry.
# UniProt P98088, residues 28-5654: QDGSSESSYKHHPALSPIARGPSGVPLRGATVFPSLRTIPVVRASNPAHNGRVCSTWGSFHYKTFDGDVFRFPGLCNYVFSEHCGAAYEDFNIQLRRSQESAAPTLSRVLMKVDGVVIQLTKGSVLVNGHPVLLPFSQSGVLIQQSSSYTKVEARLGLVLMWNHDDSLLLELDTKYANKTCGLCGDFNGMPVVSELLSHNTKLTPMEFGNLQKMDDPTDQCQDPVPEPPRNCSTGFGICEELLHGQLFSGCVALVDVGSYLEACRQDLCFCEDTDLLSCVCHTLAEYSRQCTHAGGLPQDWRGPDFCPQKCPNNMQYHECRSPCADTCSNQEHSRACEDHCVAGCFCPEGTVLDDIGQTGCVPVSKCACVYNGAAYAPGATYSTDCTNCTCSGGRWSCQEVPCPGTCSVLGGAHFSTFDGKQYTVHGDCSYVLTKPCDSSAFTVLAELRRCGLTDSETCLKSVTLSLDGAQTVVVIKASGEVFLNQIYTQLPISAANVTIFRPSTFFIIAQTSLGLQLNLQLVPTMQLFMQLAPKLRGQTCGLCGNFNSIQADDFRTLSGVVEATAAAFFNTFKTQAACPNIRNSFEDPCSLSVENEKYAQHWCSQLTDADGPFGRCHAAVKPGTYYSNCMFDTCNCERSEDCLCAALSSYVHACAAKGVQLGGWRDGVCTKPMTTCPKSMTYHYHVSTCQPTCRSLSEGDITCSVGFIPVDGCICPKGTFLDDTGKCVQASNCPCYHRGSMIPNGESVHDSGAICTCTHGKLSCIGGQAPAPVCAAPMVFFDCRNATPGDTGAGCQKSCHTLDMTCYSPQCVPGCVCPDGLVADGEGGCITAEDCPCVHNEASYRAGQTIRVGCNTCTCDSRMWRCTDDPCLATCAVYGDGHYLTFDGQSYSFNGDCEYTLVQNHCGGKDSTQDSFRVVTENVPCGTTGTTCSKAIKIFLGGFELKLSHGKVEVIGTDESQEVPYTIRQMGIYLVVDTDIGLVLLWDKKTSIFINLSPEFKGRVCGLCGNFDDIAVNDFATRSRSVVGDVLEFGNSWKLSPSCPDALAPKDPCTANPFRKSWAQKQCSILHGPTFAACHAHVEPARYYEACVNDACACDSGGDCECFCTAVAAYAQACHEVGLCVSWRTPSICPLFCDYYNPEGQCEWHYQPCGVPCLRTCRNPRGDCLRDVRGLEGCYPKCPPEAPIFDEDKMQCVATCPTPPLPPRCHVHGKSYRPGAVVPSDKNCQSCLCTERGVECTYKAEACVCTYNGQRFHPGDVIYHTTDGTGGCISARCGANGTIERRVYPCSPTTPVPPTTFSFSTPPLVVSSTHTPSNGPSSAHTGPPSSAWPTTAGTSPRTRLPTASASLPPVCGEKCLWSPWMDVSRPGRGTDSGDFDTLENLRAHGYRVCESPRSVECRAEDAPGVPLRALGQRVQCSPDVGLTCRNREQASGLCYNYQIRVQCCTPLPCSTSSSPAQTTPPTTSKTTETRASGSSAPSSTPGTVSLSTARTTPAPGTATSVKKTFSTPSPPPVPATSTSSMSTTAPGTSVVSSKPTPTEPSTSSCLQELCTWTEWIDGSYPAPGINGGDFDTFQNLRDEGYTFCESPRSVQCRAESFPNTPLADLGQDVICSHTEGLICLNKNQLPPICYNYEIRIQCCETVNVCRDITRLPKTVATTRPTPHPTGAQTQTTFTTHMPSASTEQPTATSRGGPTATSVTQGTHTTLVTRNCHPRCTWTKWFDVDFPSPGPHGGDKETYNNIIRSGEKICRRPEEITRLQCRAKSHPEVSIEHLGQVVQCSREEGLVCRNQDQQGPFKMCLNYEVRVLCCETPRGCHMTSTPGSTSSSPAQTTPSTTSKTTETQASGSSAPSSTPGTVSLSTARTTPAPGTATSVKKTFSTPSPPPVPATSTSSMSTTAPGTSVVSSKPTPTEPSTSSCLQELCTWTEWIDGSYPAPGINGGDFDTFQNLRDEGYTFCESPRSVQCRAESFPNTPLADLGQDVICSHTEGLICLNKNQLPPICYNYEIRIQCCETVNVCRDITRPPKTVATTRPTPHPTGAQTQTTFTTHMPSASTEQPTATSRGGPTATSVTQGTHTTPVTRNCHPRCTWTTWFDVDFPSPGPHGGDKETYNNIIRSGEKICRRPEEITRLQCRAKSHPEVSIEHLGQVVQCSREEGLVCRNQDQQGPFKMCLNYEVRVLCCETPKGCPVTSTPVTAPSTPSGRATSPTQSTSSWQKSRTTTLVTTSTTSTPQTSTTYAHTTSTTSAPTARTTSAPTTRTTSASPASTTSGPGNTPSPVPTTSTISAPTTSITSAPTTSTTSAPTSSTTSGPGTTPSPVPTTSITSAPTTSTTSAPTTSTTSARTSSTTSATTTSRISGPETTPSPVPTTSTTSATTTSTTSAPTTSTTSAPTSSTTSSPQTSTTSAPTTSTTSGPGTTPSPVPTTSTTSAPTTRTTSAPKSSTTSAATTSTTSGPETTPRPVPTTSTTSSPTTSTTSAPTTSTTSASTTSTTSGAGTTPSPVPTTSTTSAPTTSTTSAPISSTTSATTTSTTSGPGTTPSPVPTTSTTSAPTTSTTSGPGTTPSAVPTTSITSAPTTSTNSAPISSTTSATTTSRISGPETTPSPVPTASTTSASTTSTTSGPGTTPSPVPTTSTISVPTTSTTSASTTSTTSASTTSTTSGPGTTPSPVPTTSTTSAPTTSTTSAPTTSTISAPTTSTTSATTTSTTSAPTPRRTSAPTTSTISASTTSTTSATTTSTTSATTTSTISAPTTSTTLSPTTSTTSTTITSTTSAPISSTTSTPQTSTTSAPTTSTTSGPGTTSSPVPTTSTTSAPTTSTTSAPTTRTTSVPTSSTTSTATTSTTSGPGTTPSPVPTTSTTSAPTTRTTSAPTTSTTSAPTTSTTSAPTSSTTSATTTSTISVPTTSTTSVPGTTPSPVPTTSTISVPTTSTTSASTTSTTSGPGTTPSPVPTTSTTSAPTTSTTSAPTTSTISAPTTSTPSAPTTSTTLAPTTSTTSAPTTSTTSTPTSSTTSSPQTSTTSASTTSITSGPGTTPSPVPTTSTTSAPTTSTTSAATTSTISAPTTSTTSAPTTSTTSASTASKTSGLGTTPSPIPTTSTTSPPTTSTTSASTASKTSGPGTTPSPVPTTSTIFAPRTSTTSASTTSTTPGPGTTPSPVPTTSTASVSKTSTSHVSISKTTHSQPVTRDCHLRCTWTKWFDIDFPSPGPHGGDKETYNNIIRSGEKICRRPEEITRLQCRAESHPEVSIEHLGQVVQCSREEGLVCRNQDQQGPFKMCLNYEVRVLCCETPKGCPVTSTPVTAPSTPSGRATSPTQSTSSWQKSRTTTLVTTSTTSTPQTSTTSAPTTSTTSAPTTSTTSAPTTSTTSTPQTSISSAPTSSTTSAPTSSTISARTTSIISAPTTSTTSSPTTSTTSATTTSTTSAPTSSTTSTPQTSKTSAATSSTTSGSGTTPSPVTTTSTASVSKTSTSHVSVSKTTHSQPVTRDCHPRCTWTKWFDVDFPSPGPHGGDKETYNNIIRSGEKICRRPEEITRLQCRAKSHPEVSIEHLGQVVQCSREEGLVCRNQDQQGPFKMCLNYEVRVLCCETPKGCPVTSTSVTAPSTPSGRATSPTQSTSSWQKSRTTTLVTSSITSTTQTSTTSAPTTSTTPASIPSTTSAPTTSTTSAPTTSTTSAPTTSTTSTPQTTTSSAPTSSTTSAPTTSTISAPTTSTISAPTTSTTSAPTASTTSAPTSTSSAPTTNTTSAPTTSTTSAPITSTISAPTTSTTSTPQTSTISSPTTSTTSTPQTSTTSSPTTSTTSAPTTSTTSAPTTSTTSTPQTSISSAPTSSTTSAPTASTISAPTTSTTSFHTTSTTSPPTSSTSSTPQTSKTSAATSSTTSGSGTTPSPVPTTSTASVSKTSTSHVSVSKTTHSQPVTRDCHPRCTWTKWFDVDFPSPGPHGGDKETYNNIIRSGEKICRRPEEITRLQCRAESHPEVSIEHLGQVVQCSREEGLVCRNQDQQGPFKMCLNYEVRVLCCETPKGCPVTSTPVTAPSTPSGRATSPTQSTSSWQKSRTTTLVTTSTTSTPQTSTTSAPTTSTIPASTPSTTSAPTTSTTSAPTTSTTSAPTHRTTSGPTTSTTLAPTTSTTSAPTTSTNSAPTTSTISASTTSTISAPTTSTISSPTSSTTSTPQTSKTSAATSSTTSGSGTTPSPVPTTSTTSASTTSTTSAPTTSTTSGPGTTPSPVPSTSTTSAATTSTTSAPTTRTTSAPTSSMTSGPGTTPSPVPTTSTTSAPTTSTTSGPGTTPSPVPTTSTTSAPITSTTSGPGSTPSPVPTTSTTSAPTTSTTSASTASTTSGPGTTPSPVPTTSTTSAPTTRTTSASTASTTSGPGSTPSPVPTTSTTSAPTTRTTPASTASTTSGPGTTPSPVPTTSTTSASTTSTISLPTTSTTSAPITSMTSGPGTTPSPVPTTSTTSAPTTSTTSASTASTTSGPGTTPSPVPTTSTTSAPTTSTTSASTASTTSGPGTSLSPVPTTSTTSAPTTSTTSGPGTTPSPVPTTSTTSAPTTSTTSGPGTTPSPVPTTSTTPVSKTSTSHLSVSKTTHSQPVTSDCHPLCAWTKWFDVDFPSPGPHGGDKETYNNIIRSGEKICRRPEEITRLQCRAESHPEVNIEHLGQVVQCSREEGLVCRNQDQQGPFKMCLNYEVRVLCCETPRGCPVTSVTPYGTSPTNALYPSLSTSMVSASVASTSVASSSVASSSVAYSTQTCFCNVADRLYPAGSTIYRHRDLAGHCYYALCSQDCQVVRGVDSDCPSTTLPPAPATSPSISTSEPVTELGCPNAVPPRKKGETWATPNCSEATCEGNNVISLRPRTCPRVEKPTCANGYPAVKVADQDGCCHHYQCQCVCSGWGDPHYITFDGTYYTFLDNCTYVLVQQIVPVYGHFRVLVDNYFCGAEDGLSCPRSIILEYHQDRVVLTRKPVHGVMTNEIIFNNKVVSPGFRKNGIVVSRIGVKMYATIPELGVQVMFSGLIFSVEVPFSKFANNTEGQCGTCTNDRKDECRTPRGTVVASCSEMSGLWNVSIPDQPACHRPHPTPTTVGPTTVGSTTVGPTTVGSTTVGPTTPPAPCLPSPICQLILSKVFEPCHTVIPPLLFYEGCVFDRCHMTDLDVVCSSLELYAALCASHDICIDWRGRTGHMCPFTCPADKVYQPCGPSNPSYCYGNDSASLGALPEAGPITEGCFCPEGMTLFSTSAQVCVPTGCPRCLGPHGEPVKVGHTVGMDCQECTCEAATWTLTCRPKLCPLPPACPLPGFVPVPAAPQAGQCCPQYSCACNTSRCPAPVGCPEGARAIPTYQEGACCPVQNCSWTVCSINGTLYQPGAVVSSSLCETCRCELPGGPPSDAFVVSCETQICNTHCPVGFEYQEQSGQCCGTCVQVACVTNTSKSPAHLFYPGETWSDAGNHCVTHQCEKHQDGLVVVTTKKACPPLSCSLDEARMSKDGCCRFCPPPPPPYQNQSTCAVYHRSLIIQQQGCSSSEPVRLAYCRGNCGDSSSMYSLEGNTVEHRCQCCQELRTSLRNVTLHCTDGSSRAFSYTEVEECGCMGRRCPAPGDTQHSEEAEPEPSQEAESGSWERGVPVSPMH
# No constants are given. Whether binding was seen depends on the method and setting. Some results given as binding are weak or reduced against the parent protein; the word gives no strength.
# B1: mucus-tethering ISV M17 (VHH)
# VHH: QVQLQESGGGLVQAGGSLRLSCAASGNISPTYLMGWYRQAPGKEREFVAGIAHGASTNYADSVKGRFTISRDNAKNTVYLQMNSLKPEDTAVYYCAVNPYALDVLVYWGQGTQVTVSS
# B2: M22 (VHH)
# VHH: QVQLQESGGGLVQAGGSLRLSCAASGTISRYIYMGWYRQAPGKEREFVASIARGTITYYADSVKGRFTISRDNAKNTVYLQMNSLKPEDTAVYYCAADNKYEDAYYGYWGQGTQVTVSS
# Tests used:
# human MUC5AC (human) [1] = target: human MUC5AC (human) (UniProt P98088); assay: staining of sections of Calu-3 cells in transwell
# human MUC5AC (human) [2] = target: human MUC5AC (human) (UniProt P98088); assay: staining of sections of Calu-3 cells in transwell (legend of FIG. 6A)
binder,measurement,setting,value
B1,binding,human MUC5AC (human) [1],binds
same,binding,human MUC5AC (human) [2],binds
B2,binding,human MUC5AC (human) [1],binds
same,binding,human MUC5AC (human) [2],binds
